# Laboratory results: PubChem BioAssay AID504784 (Drosophila RNAi Screening Center, 2011)
# Purpose: 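Fly genes whose silencing alters how much lipid cells keep in droplets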 (primary screen)
# Cell system: Drosophila Kc167 embryonic cells
# Knock-down reagent: long dsRNA against Drosophila genes, about 250 ng dsRNA per well
# Time to read-out: 4 days
# Challenge: cells fed 400 µM oleic acid bound to BSA
# Measurement: 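Cells imaged and segmented; ratio of lipid droplet area to nuclear area, log-transformed, then normalised as a B-score over the screen; higher means more stored lipid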
# Scale: droplet/nuclear area B-score: higher = more stored lipid (overstorage)
# In all, the deposit lists about 17,000 reagents; shown is an unselected part of those with a known target gene and a result. 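Each column is one replicate's B-score; the combined score over replicates was not deposited, so single values may mislead.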 A plus sign joins genes that one reagent is predicted to hit. Further read-outs or replicates are left out here.
predicted target,DRSC id,"droplet/nuclear area B-score, replicate 1"
CG11113,DRSC06039,-0.835
CG10171,DRSC09711,-0.291
thr,DRSC07706,3.96
Coq4 + Gorab + frc,DRSC10383,0.149
CG8170,DRSC07087,0.837
Eps-15,DRSC04288,-0.0186
CG15432,DRSC00447,1.02
vas (retired record),DRSC22007,4.19
CG34331,DRSC20679,0.552
Osi1,DRSC12271,0.0145
CG31195,DRSC13440,0.404
CG11349,DRSC08179,0.464
pdm3,DRSC06076,-0.174
pdm3,DRSC06490,-0.674
pdm3,DRSC22326,9.48
pdm3,DRSC23181,0.57
Asph,DRSC06783,-0.184
Asph,DRSC07171,0.278
Uros2,DRSC16505,-2.25
l(3)mbn,DRSC08793,-1.86
djl,DRSC12578,-1.96
CG34357,DRSC12211,0.67
CG34357,DRSC12238,0.563
CG34357,DRSC12334,-1.19
CG34357,DRSC23031,0.022
Nep3,DRSC20685,-0.905
CG13946,DRSC00364,2.88
CG8236,DRSC16399,0.376
Jig,DRSC14974,-0.45
Spn28B,DRSC02982,-1.08
tinc,DRSC14798,1.45
tinc,DRSC14799,0.0242
tinc,DRSC16308,0.525
tinc,DRSC16309,-0.0515
